From US12637369B2, “Method for selectively removing perfluorinated compounds with electrooxidation” (SK hynix Inc., priority 2021, dated 2026)

Assay: Evaluation of selective removal efficiency of perfluorinated compound from semiconductor wastewater

O=S(=O)(O)C(F)(F)C(F)(F)C(F)(F)C(F)(F)F [PFBS, Perfluorobutane sulfonic acid]
removal rate as the BV increases (Comparative Example using only adsorption by activated carbon (FIGS. 7A, 7B)): decreased | removal rate (Comparative Example: general activated carbon tank (adsorption only), same relative flow rate as long-term Example): about 50% | removal rate (Example device, long-term operation, about 1,000,000 L or more influent, relative flow rate about 2,400 times the GAC volume): ≥ 99% | removal rate (Example: adsorption electrooxidation device, semiconductor wastewater, GAC 500 L, 1000 L/hr, 7 to 12 V, 25 A, BV up to a test time point (FIG. 7B)): 100%
